Data from US5473056.
For part of these data: Results from cells or extracts need not show a direct contact. For part of these data: No signal at the amounts used counts as a negative. For part of these data: Tags and fusion partners may be left off the protein sequences shown. For part of these data: The comparison behind a weaker result is the experiment's own reference, which may not be listed here. For part of these data: Construct, isoform or probe ends are uncertain for at least one entry.

Sequences of proteins named here, by UniProt entry; tags and fusion partners are left off. A change or cut given only in a name is not applied to a line headed by its entry. Residues count along the entry.
UniProt Q14209, 87-244: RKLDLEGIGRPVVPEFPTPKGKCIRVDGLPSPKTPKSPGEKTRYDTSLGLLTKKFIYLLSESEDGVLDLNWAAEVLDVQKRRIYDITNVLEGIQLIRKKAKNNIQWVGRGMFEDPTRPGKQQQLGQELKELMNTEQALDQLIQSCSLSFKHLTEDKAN
UniProt Q01094, 120-191: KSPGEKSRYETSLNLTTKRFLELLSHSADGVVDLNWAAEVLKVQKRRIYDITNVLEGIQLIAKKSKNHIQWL
UniProt Q01094, 150-191: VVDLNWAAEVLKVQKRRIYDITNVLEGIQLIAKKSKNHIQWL
UniProt Q01094, 130-191: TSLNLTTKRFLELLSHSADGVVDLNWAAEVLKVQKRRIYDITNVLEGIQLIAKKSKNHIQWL
UniProt Q01094, 110-170: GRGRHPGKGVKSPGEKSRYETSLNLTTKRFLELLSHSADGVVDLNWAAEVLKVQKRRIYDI
UniProt Q01094, 110-191: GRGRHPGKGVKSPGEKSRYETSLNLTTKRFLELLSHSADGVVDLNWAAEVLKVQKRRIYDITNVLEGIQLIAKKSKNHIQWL

Assays:
Test in all cases: EMSA
[1] = test system: E2F-1 + HeLa E2F band 1 (Homo sapiens); settings: identical to E2F-2 result; purified recombinant protein; label: 32P end
[2] = biological target: E2F-2 full length (Homo sapiens) (UniProt Q14209); settings: purified recombinant protein; protein details: C-terminal Glu-Glu-Phe tubulin epitope; label: 32P end
[3] = biological target: T1, E2F-1 (90-150) (Homo sapiens) (UniProt Q01094); settings: lacks 171-191, complete loss; protein in a lysate after overexpression; protein details: GST N-terminal (pGEX-2T); label: 32P end
T1 sequence: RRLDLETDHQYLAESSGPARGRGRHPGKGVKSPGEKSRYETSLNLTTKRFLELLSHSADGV

[4] = biological target: E2F-1 (90-170) (Homo sapiens) (UniProt Q01094); settings: deletion of 171-191 gives complete loss; protein in a lysate after overexpression; protein details: GST N-terminal (pGEX-2T); label: 32P end
[5] = biological target: E2F-1 (120-191) (Homo sapiens) (UniProt Q01094); settings: reduced activity; protein in a lysate after overexpression; protein details: GST N-terminal (pGEX-2T); label: 32P end
[6] = test system: E2F-2 + HeLa E2F band 5 (Homo sapiens); settings: no band after co-refolding; purified recombinant protein; label: 32P end
[7] = biological target: E2F-2 (87-244) (Homo sapiens) (UniProt Q14209); settings: text states GST-E2F-2 fusions bind specifically; protein in a lysate after overexpression; protein details: GST N-terminal (pGEX-2T); label: 32P end
[8] = test system: E2F-2 + HeLa E2F band 1 (Homo sapiens); settings: very strong band after co-refolding; excess mutant competitor present; purified recombinant protein; label: 32P end
[9] = biological target: E2F-1 (150-191) (Homo sapiens) (UniProt Q01094); settings: text: any additional deletions reduced activity; protein in a lysate after overexpression; protein details: GST N-terminal (pGEX-2T); label: 32P end
[10] = biological target: E2F-1 (130-191) (Homo sapiens) (UniProt Q01094); settings: text: any additional deletions reduced activity; protein in a lysate after overexpression; protein details: GST N-terminal (pGEX-2T); label: 32P end
[11] = biological target: E2F-1 (90-191) (Homo sapiens) (UniProt Q01094); settings: crude lysate; reference activity; protein in a lysate after overexpression; protein details: GST N-terminal (pGEX-2T); label: 32P end
[12] = biological target: E2F-1 (110-170) (Homo sapiens) (UniProt Q01094); settings: lacks 171-191, complete loss; protein in a lysate after overexpression; protein details: GST N-terminal (pGEX-2T); label: 32P end
[13] = test system: HeLa E2F band 5 (Homo sapiens); settings: no signal individually under these conditions; purified native protein; label: 32P end
[14] = biological target: E2F-1 (110-191) (Homo sapiens) (UniProt Q01094); settings: wild-type activity; protein in a lysate after overexpression; protein details: GST N-terminal (pGEX-2T); label: 32P end
[15] = biological target: T2, E2F-1 (90-130) (Homo sapiens) (UniProt Q01094); settings: lacks 171-191, complete loss; protein in a lysate after overexpression; protein details: GST N-terminal (pGEX-2T); label: 32P end
T2 sequence: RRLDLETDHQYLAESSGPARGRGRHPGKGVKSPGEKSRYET

[16] = test system: E2F-1 + HeLa E2F band 5 (Homo sapiens); settings: identical to E2F-2 result; purified recombinant protein; label: 32P end
[17] = test system: HeLa E2F band 1 + band 5 (Homo sapiens); settings: strong band on mixing and co-refolding; purified native protein; label: 32P end
[18] = test system: HeLa E2F band 1 (Homo sapiens); settings: no signal individually under these conditions; purified native protein; label: 32P end

**Q.** Does “TAGTTTTCGATATTAAATTTGAGTTTTCGCGCGAAACTAG (double strand) [E2F probe, single palindromic site]” bind [1]?
**A.** binds

**Q.** Does “TAGTTTTCGATATTAAATTTGAGTTTTCGCGCGAAACTAG (double strand) [E2F probe, single palindromic site]” bind [2]?
**A.** binds

**Q.** Does “TAGTTTTCGATATTAAATTTGAGTTTTCGCGCGAAACTAG (double strand) [E2F probe, single palindromic site]” bind [3]?
**A.** no binding

**Q.** Does “TAGTTTTCGATATTAAATTTGAGTTTTCGCGCGAAACTAG (double strand) [E2F probe, single palindromic site]” bind [4]?
**A.** no binding

**Q.** Does “TAGTTTTCGATATTAAATTTGAGTTTTCGCGCGAAACTAG (double strand) [E2F probe, single palindromic site]” bind [5]?
**A.** binds more weakly

**Q.** Does “TAGTTTTCGATATTAAATTTGAGTTTTCGCGCGAAACTAG (double strand) [E2F probe, single palindromic site]” bind [6]?
**A.** no binding

**Q.** Does “TAGTTTTCGATATTAAATTTGAGTTTTCGCGCGAAACTAG (double strand) [E2F probe, single palindromic site]” bind [7]?
**A.** binds

**Q.** Does “TAGTTTTCGATATTAAATTTGAGTTTTCGCGCGAAACTAG (double strand) [E2F probe, single palindromic site]” bind [8]?
**A.** binds

**Q.** Does “TAGTTTTCGATATTAAATTTGAGTTTTCGCGCGAAACTAG (double strand) [E2F probe, single palindromic site]” bind [9]?
**A.** binds more weakly

**Q.** Does “TAGTTTTCGATATTAAATTTGAGTTTTCGCGCGAAACTAG (double strand) [E2F probe, single palindromic site]” bind [10]?
**A.** binds more weakly

**Q.** Does “TAGTTTTCGATATTAAATTTGAGTTTTCGCGCGAAACTAG (double strand) [E2F probe, single palindromic site]” bind [11]?
**A.** binds

**Q.** Does “TAGTTTTCGATATTAAATTTGAGTTTTCGCGCGAAACTAG (double strand) [E2F probe, single palindromic site]” bind [12]?
**A.** no binding

**Q.** Does “TAGTTTTCGATATTAAATTTGAGTTTTCGCGCGAAACTAG (double strand) [E2F probe, single palindromic site]” bind [13]?
**A.** no binding

**Q.** Does “TAGTTTTCGATATTAAATTTGAGTTTTCGCGCGAAACTAG (double strand) [E2F probe, single palindromic site]” bind [14]?
**A.** binds

**Q.** Does “TAGTTTTCGATATTAAATTTGAGTTTTCGCGCGAAACTAG (double strand) [E2F probe, single palindromic site]” bind [15]?
**A.** no binding

**Q.** Does “TAGTTTTCGATATTAAATTTGAGTTTTCGCGCGAAACTAG (double strand) [E2F probe, single palindromic site]” bind [16]?
**A.** no binding

**Q.** Does “TAGTTTTCGATATTAAATTTGAGTTTTCGCGCGAAACTAG (double strand) [E2F probe, single palindromic site]” bind [17]?
**A.** binds

**Q.** Does “TAGTTTTCGATATTAAATTTGAGTTTTCGCGCGAAACTAG (double strand) [E2F probe, single palindromic site]” bind [18]?
**A.** no binding
